{"source": "the supplement of paper PMC5393889", "note": "This is one part of the list."}
{"test_system": "Caenorhabditis elegans N2", "experiment": "aldicarb interaction hit call (worm growth perturbed in combination with 10 uM aldicarb in both replicates, no effect as single agent) (binary (1 = interacts)); higher = interacts with aldicarb (growth perturbed)", "conditions": "first compound 1.5 µM; aldicarb concentration 10 µM; 6 days; 20 °C"}
{"smiles": "FC(F)(F)c1cc(-c2ccc(-n3cccc3)cc2)[nH]n1", "note": "+ CNC(=O)O/N=C/C(C)(C)SC [aldicarb]", "aldicarb interaction hit call": "inactive: 0"}
{"smiles": "Cc1ccccc1C(=O)N1CCN(c2ccc(NC(=O)c3cc4ccccc4o3)cc2)CC1", "note": "[wact-90] + CNC(=O)O/N=C/C(C)(C)SC [aldicarb]", "aldicarb interaction hit call": "inactive: 0"}
{"smiles": "CCCCCNC(=O)c1ccccc1SC", "note": "[wact-127] + CNC(=O)O/N=C/C(C)(C)SC [aldicarb]", "aldicarb interaction hit call": "inactive: 0"}
{"smiles": "C#CCOc1ccc(C(=O)Nc2ccccc2Cl)cc1", "note": "[wact-584] + CNC(=O)O/N=C/C(C)(C)SC [aldicarb]", "aldicarb interaction hit call": "inactive: 0"}
{"smiles": "c1ccc2[nH]c(-c3cncs3)nc2c1", "note": "[wact-608] + CNC(=O)O/N=C/C(C)(C)SC [aldicarb]", "aldicarb interaction hit call": "inactive: 0"}
{"smiles": "Clc1ccc(-c2ncc(CN3CCCC(N4CCCC4)C3)cn2)cc1", "note": "(stereo not given) [wact-325] + CNC(=O)O/N=C/C(C)(C)SC [aldicarb]", "aldicarb interaction hit call": "inactive: 0"}
{"smiles": "CSc1ccc(C(=O)/C=C/c2ccc(N)cc2)cc1", "note": "[wact-464] + CNC(=O)O/N=C/C(C)(C)SC [aldicarb]", "aldicarb interaction hit call": "inactive: 0"}
{"smiles": "CNCc1ccc(-c2cccc(Cl)c2C)o1.Cl", "note": "[wact-183] + CNC(=O)O/N=C/C(C)(C)SC [aldicarb]", "aldicarb interaction hit call": "inactive: 0"}
{"smiles": "O=C(NC(=S)Nc1ccc(Cl)cc1Cl)C1CC1", "note": "[wact-224] + CNC(=O)O/N=C/C(C)(C)SC [aldicarb]", "aldicarb interaction hit call": "active: 1"}
{"smiles": "Cc1ccc(C(=O)O/N=C(\\N)c2ccc(Cl)cc2)c(C)c1", "note": "[wact-537] + CNC(=O)O/N=C/C(C)(C)SC [aldicarb]", "aldicarb interaction hit call": "inactive: 0"}
